# Small-molecule microarray binding calls

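Each compound is printed as two spots on a slide made to bind it covalently, so it has no test concentration; the read-out is fluorescence of the bound, labelled oligonucleotide. The data file lists only calls. An earlier report of the laboratory on the PreQ1, TPP and SAM-II riboswitches (doi:10.1038/s41467-019-09493-3) used 1 µM RNA for 2 h and required a mean Z-score above 3 (spot signal-to-noise against the whole library), a score well above that on a control array, and duplicate spots agreeing (coefficient of variation under 100); it then also set aside compounds that hit other targets, which this list keeps. The cut-offs behind this list may differ. The calls come from the array alone, and fixing a compound to the slide can hide its binding.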
“hit” means called a hit, “no hit” means screened and not called a hit.
The compounds are a random part of those screened.
A dash means that no call is listed here.

Targets, with sequences 5′ to 3′:
T1: SAM-II riboswitch RNA pseudoknot, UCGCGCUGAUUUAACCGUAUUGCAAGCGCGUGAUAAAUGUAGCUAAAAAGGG. About 200 hits among about 21,000 compounds.
T2: PreQ1 riboswitch RNA pseudoknot, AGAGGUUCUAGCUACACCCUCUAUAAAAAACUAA. From B. subtilis. About 170 hits among about 24,000 compounds.
T3: TPP riboswitch RNA three-way junction, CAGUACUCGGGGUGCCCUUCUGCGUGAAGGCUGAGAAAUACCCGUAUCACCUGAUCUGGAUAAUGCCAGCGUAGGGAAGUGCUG. About 160 hits among about 24,000 compounds.

SMILES,T1,T2,T3
Cc1nnnn1-c1ccc(CC(=O)N2C[C@@H](N)C[C@H]2C(=O)NC(C)C)cc1,no hit,no hit,no hit
CN1CCN(C[C@@H]2CN(C(=O)c3ccc4nnnn4c3)C[C@@H]2CO)CC1,no hit,no hit,no hit
COc1cccc(CNc2ccc(N3CCOCC3)c(C(=O)O)c2)c1OC,no hit,no hit,no hit
Cc1cc(C)c2[nH]c(=O)c(CN3CCOC(CN)C3)cc2c1 (stereo not shown),no hit,no hit,no hit
N#CC1=C(N)OC2=C(C(=O)c3ccccc3C2=O)C1c1ccc2c(c1)OCO2 (stereo not shown),no hit,no hit,no hit
CC[C@@]1(O)CCN(C(=O)c2cc(-c3ccccn3)n[nH]2)C[C@H]1O,no hit,no hit,no hit
Nc1nc2n(c1C(=O)c1ccc(F)cc1)CCC2,no hit,no hit,no hit
CCOc1ccc(-c2cnc(NCc3cccc(Br)c3)n2C)cc1,no hit,no hit,no hit
CCCc1cc(NC(C)CC)n2nc3nc(C)cc(C)c3c2n1 (stereo not shown),-,no hit,no hit
Nc1nonc1C(=O)N1CCN(C(=O)Nc2ccccc2Cl)CC1,-,no hit,no hit
COc1ccc(-c2noc(CNCC(C)C)n2)cc1OC,no hit,no hit,no hit
CC(=Cc1csc(C)n1)[C@@H]1C[C@H]2O[C@@H]2CCC[C@H](C)[C@@H](O)[C@@H](C)C(=O)C(C)(C)[C@@H](O)CC(=O)O1,no hit,no hit,no hit
CC(C)CN1CCn2nc(CNC(=O)CC3COCCN3)cc2C1 (stereo not shown),no hit,no hit,no hit
O=C1C=C(c2ccccc2)OC(=O)C1C(=O)c1ccccc1 (stereo not shown),no hit,no hit,no hit
CCCCCCNC(=O)n1cc(F)c(=O)[nH]c1=O,no hit,no hit,no hit
CCOc1ccc([C@H]2C[C@@H](c3ccc(C)cc3)Nc3nc(N)nn32)cc1,no hit,no hit,no hit
CCOC(=O)c1c(N)sc2c1CCC(C(C)(C)C)C2 (stereo not shown),no hit,no hit,no hit
Cc1cc(C)cc(OCCCCn2c(CO)nc3ccccc32)c1,no hit,no hit,no hit
COc1cccc2c1NC(=O)CC2C(=O)NCc1cc2n(n1)CCNC2 (stereo not shown),no hit,no hit,no hit
Cc1nc2sc(C(=O)OCc3ccccc3)c(N)c2c(C)c1C,no hit,no hit,no hit
NC1=C(c2nc(-c3ccc(Cl)cc3)cs2)C(=O)CN1CC1CCCO1 (stereo not shown),-,no hit,no hit
CCNc1nc(C)cc(N2CCN(S(=O)(=O)CC)CC2)n1,-,no hit,no hit
CC(C)Cn1c(CC2(CC(=O)NC3CCNCC3)CCCC2)nc2cccnc21,no hit,no hit,no hit
COc1cc2c(cc1-c1cc(-c3ccn(C)c3)nc(N)c1C#N)OCO2,no hit,no hit,no hit
Cc1cc(C)c2c(n1)nn1c(Nc3ccccc3)cc(C)nc21,-,no hit,no hit
NCc1n[nH]c(=O)n1-c1ccccc1Oc1ccccc1,no hit,no hit,no hit
O=C(CCCO)NCCc1nc2ccccc2n1Cc1cccc(Cl)c1,-,no hit,no hit
Nc1nc(C=Cc2ccc(Br)cc2)nc(-c2ccccc2O)n1,no hit,no hit,no hit
NCCO[C@H]1C[C@@H](O)C12CCN(Cc1cnn(-c3ccccc3F)c1)CC2,no hit,no hit,no hit
S=C(SCc1cc(Cl)cc2c1OCOC2)N1CCSCC1,no hit,no hit,no hit
CCOC(=O)c1cnc2ccc(Br)cc2c1Nc1ccc(C(C)=O)cc1,no hit,no hit,no hit
CCCOC(=O)c1ccc(OCC(O)Cn2cnc3ccccc32)cc1 (stereo not shown),no hit,no hit,no hit
Cc1csc(CCCNCC2(O)CCNC2)n1 (stereo not shown),no hit,no hit,no hit
OCc1ccc(CN2CCCC(c3nc(-c4ccccc4)no3)C2)o1 (stereo not shown),no hit,no hit,no hit
Cc1cc(-c2ccc(N3C(=O)CC4(CCCC4)C3=O)c(C)c2)ccc1N1C(=O)CC2(CCCC2)C1=O,no hit,no hit,no hit
COc1ccccc1/C=C(\C#N)C(=O)O,no hit,no hit,no hit
COc1cccc(CCNC(=O)c2cccc(CC3CCNCC3)c2)c1,no hit,no hit,no hit
COc1cc(CNC2CCCCCC2)ccc1OCc1ccc2c(c1)n(C)c(=O)n2C,-,no hit,no hit
OC(CN1CCN(c2ccccc2F)CC1)c1ccc2cc[nH]c2c1 (stereo not shown),no hit,no hit,no hit
COC(=O)C1=C(N)OC2=C(C(=O)CCC2)C1c1cccc(F)c1 (stereo not shown),no hit,no hit,no hit
C[C@]1(CO)CN(c2cc(C(=O)Nc3ccc4c(c3)-c3c(c(C(N)=O)nn3-c3ccc(F)cc3)CC4)c(Cl)cn2)C[C@@]1(C)CO,no hit,no hit,no hit
CC(C)OCCCNc1nc(-c2ccccc2)nc2ccccc12,no hit,no hit,no hit
CCCc1nc2nc(C)cc(Nc3ccc(C)cc3Cl)n2n1,no hit,no hit,no hit
Cc1[nH]c2c(C)ccc(C)c2c1CC(=O)N(C)CCC(O)c1ccccc1 (stereo not shown),no hit,no hit,no hit
Cc1cc(-c2ccccc2C(N)=O)c(C)c2sc(N)nc12,no hit,no hit,no hit
O=C1N(Cc2nc(-c3cccnc3)no2)c2ccccc2NC12CCNCC2,no hit,no hit,no hit
Cc1ccc(Nc2nc(C)nc(N)c2S(=O)(=O)c2ccccc2)cc1,no hit,no hit,no hit
Cc1cccc(CN2c3ccccc3C3=C(C(c4cccc(Cl)c4)C(C#N)=C(N)O3)S2(=O)=O)c1 (stereo not shown),-,no hit,no hit
Cc1cc(O)c2c(O)n[nH]c2n1,no hit,no hit,no hit
COc1ccc(-c2ccccc2)cc1NC(=O)NCCN1CCCCC1CO (stereo not shown),no hit,no hit,no hit
CCOC(=O)N1CCN(CC(O)COc2ccc(Cl)cc2C)CC1 (stereo not shown),no hit,no hit,no hit
Cn1c(-c2ccc(F)cc2)cnc1NCc1cccc(Cl)c1,no hit,no hit,no hit
OC1CN(Cc2cccc3cc[nH]c23)CCN(c2ccncc2)C1 (stereo not shown),no hit,no hit,no hit
CCc1ccc(NCc2nc(-c3ccccc3)no2)cc1,no hit,no hit,no hit

4 of the entries, repeated:

SMILES,T1,T2,T3
C[C@]1(CO)CN(c2cc(C(=O)Nc3ccc4c(c3)-c3c(c(C(N)=O)nn3-c3ccc(F)cc3)CC4)c(Cl)cn2)C[C@@]1(C)CO,no hit,no hit,no hit
CCCOC(=O)c1ccc(OCC(O)Cn2cnc3ccccc32)cc1 (stereo not shown),no hit,no hit,no hit
CC(C)Cn1c(CC2(CC(=O)NC3CCNCC3)CCCC2)nc2cccnc21,no hit,no hit,no hit
NC1=C(c2nc(-c3ccc(Cl)cc3)cs2)C(=O)CN1CC1CCCO1 (stereo not shown),-,no hit,no hit

Data from the ROBIN nucleic acid binder screens, doi:10.1002/anie.202211358.